Measurements published in publication PMC10163288.
This is one part of the list.

B1: il2ra_site1_3nfp_sap_13_mot_HHH_b1_08723_000000044_0001_1_15_H_._ab64a61eb8ed0a9ede620dc4fdff3441_0001_af2_0001_0000300008_0000001_0_0001_af2pred_0001_af2pred_1 … (protein)
chain: TAEELIERLVRAAVELNNPKLLRKILEDLEKNLGDPEEAERVLKELIEKVLGDPEEAERLVEEAK
B2: il2ra_site2_3nfp_sap_27_mot_HHH_b1_04032_000000208_0001_43_56_H_._1e732a8f1387564f994c80782a8510f9_0001_1_0001_0000300013_0000001_0_0001_af2pred_0001_af2pred (protein)
chain: SSSSSEEVEKLIEEAKELLERGNPEEAEKVLRRAALEAAKAGDFELFAELNRLLEKVLELGSSSS
B3: il2ra_site1_3nfp_normal_mot_HHH_b2_05545_af2_000000027_0001_43_57_H_._HHH_b2_07739_0001_0000400036_0000001_0_af2pred_0001_af2pred_1_swapped (protein)
chain: SSSSSSKEEVEIFERVLKRIAQSKDPEERRELLKELERLLRELGSRAALKFVERLARRVNSSSSS
B4: il2ra_site2_2erj_normal_mot_HHH_b1_01129_af2_000000281_0001_18_33_H_._HHH_b2_07712_0001_0000700042_0000001_0 (protein)
chain: SSSSSSDEEEVEELLERAKEITDLRELYRLLNEALRIASESRNHELLELIYKVMEELASSSSSSS
B5: il2ra_site1_3nfp_normal_mot_eb5a5eebac1e5153f932cc6c3f4b2787_0001_af2_000000065_0001_18_33_H_._HHH_b2_00546_af2_0001_0000500045_0000001_0_af2pred_0001_af2pred (protein)
chain: SSSSDELKEEVRELLEQAEEAAKEGNPLEASKLLEEALRLARENRDHELAEEIFKIMKELASSSS
B6: il2ra_site2_3nfp_normal_mot_HHH_b2_06904_af2_000000235_0001_1_14_H_._5f20bd37ef72b54d9d5808571b4331c8_0001_0001_0000300049_0000001_0_af2pred_0001_af2pred (protein)
chain: GPAELIWELRHEDRELAFALFALRAEVLATNDPRLEELLERALELIEEGNPEEAKEVLKEAEKLP
B7: il2ra_site2_3nfp_normal_mot_HHH_b2_05281_000000198_0001_39_56_H_._HHH_b1_04028_0001_0001200026_0000001_0 (protein)
chain: SSSSSEEEKRVEELIERAEELLKRGNPEEAKELLQEATHLAFELGDSRLFYLLAELAYELRSSSS
B8: il2ra_site2_2erj_sap_18_mot_4b0744c440632e7b239d8b54ed7c44c2_0001_af2_000000182_0001_16_31_H_._HHH_b1_07812_0001_0000400013_0000001_0_0001 (protein)
chain: SSSSDERLHELYELAAELLRLVAEGDEEQFERVFEELRELIEELKSETARKILESLRRLLHSSSS
B9: il2ra_site1_2b5i_sap_13_mot_HHH_b1_02271_000000068_0001_1_16_H_._938bed80e497fa1066727820926b3ec2_0001_af2_0001_0000200006_0000001_0_0001 (protein)
chain: SSSSSREAMKELVRWVLRLKWRLGLSDEAMKELAQLASELLEKGISPEEAKEILRERAEELSSSS
B10: il2ra_site1_1z92_normal_mot_HHH_b1_07526_000000113_0001_40_57_H_._HHH_b1_06581_af2_0001_0000200038_0000001_0_af2pred_0001_af2pred_1 (protein)
chain: SSSSDLEEEAQKIVEELVEELNLSEKQEKNLRRLAKAAVELGADEEEIERLLRLFAELALSSSSS
B11: il2ra_site1_2b5i_normal_mot_0e5a94e4a5addaac739760efb25f0f5d_0001_000000246_0001_18_32_H_._cf88cf85650e0ae85d215619de225a54_0001_0001_0000300012_0000001_0_af2pr … (protein)
chain: DEEKEERVRKRAKRNPRDALVLAIFIARKKGDEELTEKLEELAELLLRGEVPPEELVELALELLR
B12: il2ra_site2_2erj_sap_17_mot_HHH_b1_05944_000000102_0001_38_56_H_._HHH_b2_07088_0001_0000300019_0000001_0_0001 (protein)
chain: SSSSSDKLREAYELAVEVMRLLSEGDEEEAERLAEEVERLLEELGTPDAAELLRELLRINSSSSS
B13: il2ra_site2_3nfp_sap_15_mot_HHH_b1_04996_000000161_0001_40_54_H_._HHH_b2_06317_0001_0000300055_0000001_1_0001 (protein)
chain: SSSSSDKEEVEELLREAERLLEEGNPEEAEQAVLRAAHLAWELNDFEAYMKVAELAFRIASSSSS
B14: il2ra_site2_3nfp_sap_15_mot_HHH_b2_07840_000000026_0001_18_34_H_._HHH_b2_05131_0001_0000700021_0000001_0_0001 (protein)
chain: SSSSDEEEKRVQELIEEIERLLEEGDRWEAAQLLLEASELAARINNEELARKLLELFRLIQSSSS
B15: il2ra_site1_3nfp_normal_mot_HHH_b1_04931_000000291_0001_38_56_H_._HHH_b2_03644_0001_0000700031_0000001_0_af2pred_0001_af2pred (protein)
chain: SSSSSDEEDEEEVKRLLEEAKRIEDPREANEVLREALKIAKEAGDPELYKLVLKVLRELASSSSS
B16: il2ra_site1_2b5i_normal_mot_HHH_b2_04910_000000118_0001_1_19_H_._HHH_b2_06441_af2_0001_0000100003_0000001_0_af2pred_dldesign_0_af2pred (protein)
chain: SSSSSSPAEEARRLFYKANELYQAGKYEEAKAALEEALRLARELGSRSLTRLIELALASLSSSSS
B17: il2ra_site2_3nfp_normal_mot_HHH_b1_05627_af2_000000038_0001_43_56_H_._HHH_b1_00019_0001_0000600019_0000001_1 (protein)
chain: SSSSKAEEYVEAAILIARLALEQGDPESARSSLHAAELLARAIRDPELVRLVEELEEELNSSSSS
B18: il2ra_site2_3nfp_sap_19_mot_HHH_b1_06613_af2_000000098_0001_23_40_H_._HHH_b2_05595_af2_0001_0000400018_0000001_0_0001_af2pred_0001_af2pred (protein)
chain: SSSSSSDVEELLEQAERLLEEGNEEEAEQVLLRAAAAAAERNDFETYAEVADLYRRLKSSSSSSS
B19: il2ra_site2_3nfp_sap_6_mot_HHH_b2_00747_000000224_0001_22_38_H_._HHH_b2_08216_0001_0000300016_0000001_0_0001 (protein)
chain: SSSSSWERLLRLALEALRAASRQRDDEWFEKSFEYIRAAVELWNDEEAREELEEIEEKFEGSSSS

What follows are binders tested against il2ra, P01589 (assay: yeast display titration).

Apparent Kd, inactive:
B1 no binding seen
B2 no binding seen
B3 no binding seen
B4 no binding seen
B5 no binding seen
B6 no binding seen
B7 no binding seen
B8 no binding seen
B9 no binding seen
B10 no binding seen
B11 no binding seen
B12 no binding seen
B13 no binding seen
B14 no binding seen
B15 no binding seen
B16 no binding seen
B17 no binding seen
B18 no binding seen
B19 no binding seen

2 entries picked at random from the list so far, as already listed:
Apparent Kd, inactive:
B4 no binding seen
B10 no binding seen
